Assay results reported in patent publication US20230220078A1 (NAVI BIO THERAPEUTICS, published 2023).
These are yes or no findings as the source states them, for the method shown. Some binding calls cover weakened binding; strength is not graded here.

Chains of the proteins cited; added tags and fusions are not shown. Lines headed by an entry give the natural chain unless they say otherwise; changes in a name come on top. Residues count along the entry.
UniProt Q96NY8: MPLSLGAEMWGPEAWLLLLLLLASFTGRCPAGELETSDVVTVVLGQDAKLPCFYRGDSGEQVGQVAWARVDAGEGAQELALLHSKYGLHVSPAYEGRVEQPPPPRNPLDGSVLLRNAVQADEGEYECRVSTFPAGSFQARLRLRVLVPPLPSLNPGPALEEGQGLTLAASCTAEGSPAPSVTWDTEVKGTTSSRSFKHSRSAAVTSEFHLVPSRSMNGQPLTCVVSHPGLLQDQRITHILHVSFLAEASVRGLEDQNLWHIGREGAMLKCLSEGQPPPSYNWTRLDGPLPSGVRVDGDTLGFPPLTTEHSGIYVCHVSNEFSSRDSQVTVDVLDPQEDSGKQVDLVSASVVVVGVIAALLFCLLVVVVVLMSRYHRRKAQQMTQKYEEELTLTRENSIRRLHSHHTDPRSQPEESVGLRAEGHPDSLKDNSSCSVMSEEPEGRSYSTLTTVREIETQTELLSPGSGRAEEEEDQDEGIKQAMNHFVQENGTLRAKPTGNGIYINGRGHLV
BML01-nectin4: residues 32-510 of Q96NY8
PVRL4_864 (94-957, 864 bps, r864p) recombinant fragment of Nectin-4 (PVRL4_HUMAN): residues 32-319 of Q96NY8
r639p: residues 32-244 of Q96NY8

Tests used:
r639p (human) = r639p (human) (UniProt Q96NY8); assay: western blot of r342p, r639p and r864p (lanes 1-3), scFv S21 20 µg/ml
[1] = target: PVRL4_864 (94-957, 864 bps, r864p) recombinant fragment of Nectin-4 (PVRL4_HUMAN) (human) (UniProt Q96NY8); assay: western blot of PVRL4 864 probed with purified scFv
BML01-nectin4 (human) [2] = target: BML01-nectin4 (human) (UniProt Q96NY8); assay: flow cytometry, 20 µl candidate phage clone on 1x10^5 cells, detected with anti-HA antibody [Cont.]
BML01-nectin4 (human) [3] = target: BML01-nectin4 (human) (UniProt Q96NY8); assay: cell-based ELISA, 50 µl candidate phage culture on BML01-nectin4 and BML01 cells, anti-M13-HRP detection
BML01-nectin4 (human) [4] = target: BML01-nectin4 (human) (UniProt Q96NY8); assay: cell-based ELISA with phage clones, ratio of OD on BML01-nectin4 to OD on BML01

B1: NECTIN4-scFv-S21 (scFv, V domains shown)
VH: AVTLDESGGGLQTPGGALSLVCKASGFTFSSYAMMWVRQAPGKGLEYIAGIRSDGRYTYYGAAVKGRATISRDNGQSTVRLQLNNLRAEDTGTYYCAKSGVTDTSSSTYSSASNIDAWGHGTEVIVSS
VL: ALTQPSSVSANLGGTVKITCSGGSGSYGWYQQKSPGSAPVTLIYANTNRPSDIPSRFSGSKSGSTSTLTITGVQAEDVAVYYCGSRDSSYVGIFGAGTTLTVL
notes: Chicken-derived scFv from a pComb3X phage library, tested as purified scFv; also called anti-PVRL4 scFv S21; NECTIN4-scFv-521
binding (r639p (human)): binds

B2: S2 (scFv)
scFv (VH and VL joined by a linker; order and linker not stated for this clone): TVTLDESGGGLQTPGGGLSLVCKGSGFTFSSNGMAWVRQAPGKGLEFVGGVNAAGSWTGYGAAVKGRATISRDNGQSTVRLQLNDLRAEDTGTYYCAKTADDWYGADDIDAWGHGTEVIVSSALTQPSSVSANPGETVEVTCSGDDSRYYGWYQQKSPGSAPVTVIYYNDKRPSDIPSRFSGSKSGSTGTLTITGVQAEDEAVYFCGAYDSTTHSGSAFGAGTTLTVL
binding [1]: binds

B3: S8 (scFv)
scFv (VH and VL joined by a linker; order and linker not stated for this clone): TVTLDESGGGLQTPGGGLSLVCKASGFTFNDYGMGWMRQAPGKGLEWVAGISGSGSYTDYGAAVKGRAIISRDNGQSTVRLQLNNLRAEDTGTYVCAKGSNSAYPDAADIDAWGHGTEVIVSSALTQPSSVSANLGGTVEITCSGGSGYGYGWYQQKSPGSAPVTVIYSNDKRPSDIPSRFSGSASGSTATLTITGVRAEDEAVYFCGGYDSSASYVGIFGAGTTLTVL
binding (BML01-nectin4 (human) [2]): binds
binding (BML01-nectin4 (human) [3]): binds
binding (BML01-nectin4 (human) [4]): binds
